Laboratory results: PubChem BioAssay AID1224830 (NIAID, 2016)
This is an unselected part of about 18,000 deposited reagents. Of all reagents, about 2,900 (16%) were called active. 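Calls are made per well; low scores hint the gene aids the LPS response, high scores that it dampens it.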 Entries without a mark were called inactive. Repeated entries: four replicate wells of each siRNA pool.

Test: 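Host factors that control LPS-induced TNF expression in human macrophages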 (primary screen)
Cells: human THP-1 monocytic leukaemia cells, TNF dual-luciferase reporter clone, PMA-differentiated to macrophage-like cells
Reagents: siRNA pool against human genes, 50 nM
Duration: LPS for 4 h, given about 3 days after siRNA transfection
Challenge: bacterial LPS (TLR4 ligand), 10 ng/ml
Read-out: 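TNF firefly reporter luminescence divided by renilla, normalised to the plate median, then turned into a robust z-score for each replicate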
Reading the numbers: TNF reporter robust z-score: higher = stronger TNF reporter response to LPS
Rule for the call: 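a well is active when its z-score exceeds 2.8 or falls below -1.5; control wells carry no call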

no.	gene	TNF reporter robust z-score
1	MAFF	0.82
2	MAFF	0.49
3	MAFF	-0.62
4	MAFF	-1.01
5	GPX4	-2.11 (active)
6	GPX4	-1.31
7	GPX4	-1.92 (active)
8	GPX4	-1.55 (active)
9	ZNF775	-0.88
10	ZNF775	0.91
11	ZNF775	-0.05
12	ZNF775	-0.09
13	COQ5	0.13
14	COQ5	-0.48
15	COQ5	-0.44
16	COQ5	0.22
17	POU3F4	0.36
18	POU3F4	0.99
19	POU3F4	0.07
20	POU3F4	1.71
21	GHR	-0.88
22	GHR	0.22
23	GHR	0.86
24	GHR	2.48
25	ANG	1.59
26	ANG	1.65
27	ANG	2.42
28	ANG	2.95 (active)
29	MYCBP	0.74
30	MYCBP	0.91
31	MYCBP	0.38
32	MYCBP	0.78
33	THBS2	-0.79
34	THBS2	0.45
35	THBS2	-0.29
36	THBS2	0.53
37	MZT2B	-1.61 (active)
38	MZT2B	-0.87
39	MZT2B	-1.16
40	MZT2B	-1.03
41	ADAMTS10	-0.62
42	ADAMTS10	-0.58
43	ADAMTS10	-1.15
44	ADAMTS10	1.64
45	MS4A4A	-0.84
46	MS4A4A	-0.74
47	MS4A4A	-0.71
48	MS4A4A	-1.18
49	PSG1	-1.66 (active)
50	PSG1	0.19
51	PSG1	-0.61
52	PSG1	-1.11
53	PCDH12	0.03
54	PCDH12	0.2
55	PCDH12	0.45
56	PCDH12	0.21
57	BCAP31	-0.92
58	BCAP31	-0.62
59	BCAP31	-1.36
60	BCAP31	-0.18
61	ZNF418	-0.3
62	ZNF418	-0.58
63	ZNF418	-0.49
64	ZNF418	0.11
65	SCAF1	-0.64
66	SCAF1	2.4
67	SCAF1	-0.01
68	SCAF1	-0.05
69	COX7A1	-0.48
70	COX7A1	-0.29
71	COX7A1	-1.06
72	COX7A1	-0.2
73	ERI3	-0.99
74	ERI3	-0.95
75	ERI3	-0.54
76	ERI3	-0.83
77	CIRSR	-0.26
78	CIRSR	-0.41
79	CIRSR	-0.2
80	CIRSR	-0.63
81	RPS5	3.5 (active)
82	RPS5	1.11
83	RPS5	1.01
84	RPS5	0.85
85	ABHD4	1.25
86	ABHD4	0.65
87	ABHD4	-0.83
88	ABHD4	0.62
89	BOLA2B	-0.13
90	BOLA2B	-0.21
91	BOLA2B	-0.55
92	BOLA2B	2.25
93	C21orf58	-0.97
94	C21orf58	-1.22
95	C21orf58	-0.92
96	C21orf58	-0.91
97	ZNF22-AS1	-0.44
98	ZNF22-AS1	2.03
99	ZNF22-AS1	1.29
100	ZNF22-AS1	2.05
101	ANO1	-0.55
102	ANO1	-0.66
103	ANO1	-1.34
104	ANO1	-0.32
105	REN	1.78
106	REN	0.77
107	REN	-0.35
108	REN	-0.4
109	IQCE	0.98
110	IQCE	1.67
111	IQCE	1.41
112	IQCE	1.49

Records above whose target name begins with R or r (8):
gene	TNF reporter robust z-score
RPS5	3.5 (active)
RPS5	1.11
RPS5	1.01
RPS5	0.85
REN	1.78
REN	0.77
REN	-0.35
REN	-0.4
